Experimental data from PMC6140714.

Protein sequences, listed by entry. Tags and fused reporters are not part of them.
UniProt O14965: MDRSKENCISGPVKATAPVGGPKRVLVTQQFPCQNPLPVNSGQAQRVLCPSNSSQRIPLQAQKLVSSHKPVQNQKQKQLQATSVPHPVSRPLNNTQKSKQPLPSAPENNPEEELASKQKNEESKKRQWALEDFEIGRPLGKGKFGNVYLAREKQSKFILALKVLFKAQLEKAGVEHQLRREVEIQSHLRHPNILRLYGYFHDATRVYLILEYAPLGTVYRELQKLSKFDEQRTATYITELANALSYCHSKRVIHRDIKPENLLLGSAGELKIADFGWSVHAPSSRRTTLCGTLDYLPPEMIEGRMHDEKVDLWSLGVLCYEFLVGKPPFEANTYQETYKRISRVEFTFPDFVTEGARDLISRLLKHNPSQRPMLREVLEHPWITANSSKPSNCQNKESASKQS
UniProt O00429: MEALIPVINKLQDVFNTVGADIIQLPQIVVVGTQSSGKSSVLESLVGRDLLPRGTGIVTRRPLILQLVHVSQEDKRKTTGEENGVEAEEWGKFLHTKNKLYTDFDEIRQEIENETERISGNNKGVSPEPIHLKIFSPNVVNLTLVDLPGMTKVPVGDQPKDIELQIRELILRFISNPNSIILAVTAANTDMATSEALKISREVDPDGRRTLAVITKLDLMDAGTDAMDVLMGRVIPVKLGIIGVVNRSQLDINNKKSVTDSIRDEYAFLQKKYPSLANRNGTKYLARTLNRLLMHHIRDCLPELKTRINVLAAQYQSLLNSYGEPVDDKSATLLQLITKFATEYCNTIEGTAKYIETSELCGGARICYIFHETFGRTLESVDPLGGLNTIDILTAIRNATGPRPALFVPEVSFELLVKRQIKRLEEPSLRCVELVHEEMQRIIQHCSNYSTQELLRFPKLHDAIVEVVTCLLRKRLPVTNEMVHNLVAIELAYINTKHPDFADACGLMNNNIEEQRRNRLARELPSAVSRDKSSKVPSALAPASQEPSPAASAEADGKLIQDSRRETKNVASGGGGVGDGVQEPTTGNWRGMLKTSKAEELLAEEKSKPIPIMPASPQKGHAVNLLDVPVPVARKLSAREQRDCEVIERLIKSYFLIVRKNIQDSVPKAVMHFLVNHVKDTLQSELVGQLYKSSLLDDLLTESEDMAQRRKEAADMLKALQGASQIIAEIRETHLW

Molecular target: AURKA-GFP (affinity-purified) (human) (UniProt O14965)
Test: affinity purification with mass spectrometry; AURKA-GFP isolated by affinity-purification from whole cell extracts or mitochondrial fractions of HEK293 cells; nanoLC-ESI MS/MS; hits filtered against CRAPome

Q: How did the binding turn out when DNM1L (from UniProt O00429 1-736) was run?
A: binds

B1: MFF (protein, UniProt Q9GZY8 1-342)
chain: MSKGTSSDTSLGRVSRAAFPSPTAAEMAEISRIQYEMEYTEGISQRMRVPEKLKVAPPNADLEQGFQEGVPNASVIMQVPERIVVAGNNEDVSFSRPADLDLIQSTPFKPLALKTPPRVLTLSERPLDFLDLERPPTTPQNEEIRAVGRLKRERSMSENAVRQNGQLVRNDSLWHRSDSAPRNKISRFQAPISAPEYTVTPSPQQARVCPPHMLPEDGANLSSARGILSLIQSSTRRAYQQILDVLDENRRPVLRGGSAAATSNPHHDNVRYGISNIDTTIEGTSDDLTVVDAASLRRQIIKLNRRLQLLEEENKERAKREMVMYSITVAFWLLNSWLWFRR
Q: Which binding does the source give for B1 here?
A: binds

These are yes or no findings as the source states them, for the method shown. Binding seen in cells or lysates may run through a third protein. A yes stands for co-enrichment or nearness to the bait. Other partners may have been found.
